We go through four compounds from BindingDB's records for doi:10.7270/Q2DJ5KHH (D3R/Abbott, 2020).

Amino acid sequences for entries named in this document (tags omitted).
UniProt P35968, whole entry: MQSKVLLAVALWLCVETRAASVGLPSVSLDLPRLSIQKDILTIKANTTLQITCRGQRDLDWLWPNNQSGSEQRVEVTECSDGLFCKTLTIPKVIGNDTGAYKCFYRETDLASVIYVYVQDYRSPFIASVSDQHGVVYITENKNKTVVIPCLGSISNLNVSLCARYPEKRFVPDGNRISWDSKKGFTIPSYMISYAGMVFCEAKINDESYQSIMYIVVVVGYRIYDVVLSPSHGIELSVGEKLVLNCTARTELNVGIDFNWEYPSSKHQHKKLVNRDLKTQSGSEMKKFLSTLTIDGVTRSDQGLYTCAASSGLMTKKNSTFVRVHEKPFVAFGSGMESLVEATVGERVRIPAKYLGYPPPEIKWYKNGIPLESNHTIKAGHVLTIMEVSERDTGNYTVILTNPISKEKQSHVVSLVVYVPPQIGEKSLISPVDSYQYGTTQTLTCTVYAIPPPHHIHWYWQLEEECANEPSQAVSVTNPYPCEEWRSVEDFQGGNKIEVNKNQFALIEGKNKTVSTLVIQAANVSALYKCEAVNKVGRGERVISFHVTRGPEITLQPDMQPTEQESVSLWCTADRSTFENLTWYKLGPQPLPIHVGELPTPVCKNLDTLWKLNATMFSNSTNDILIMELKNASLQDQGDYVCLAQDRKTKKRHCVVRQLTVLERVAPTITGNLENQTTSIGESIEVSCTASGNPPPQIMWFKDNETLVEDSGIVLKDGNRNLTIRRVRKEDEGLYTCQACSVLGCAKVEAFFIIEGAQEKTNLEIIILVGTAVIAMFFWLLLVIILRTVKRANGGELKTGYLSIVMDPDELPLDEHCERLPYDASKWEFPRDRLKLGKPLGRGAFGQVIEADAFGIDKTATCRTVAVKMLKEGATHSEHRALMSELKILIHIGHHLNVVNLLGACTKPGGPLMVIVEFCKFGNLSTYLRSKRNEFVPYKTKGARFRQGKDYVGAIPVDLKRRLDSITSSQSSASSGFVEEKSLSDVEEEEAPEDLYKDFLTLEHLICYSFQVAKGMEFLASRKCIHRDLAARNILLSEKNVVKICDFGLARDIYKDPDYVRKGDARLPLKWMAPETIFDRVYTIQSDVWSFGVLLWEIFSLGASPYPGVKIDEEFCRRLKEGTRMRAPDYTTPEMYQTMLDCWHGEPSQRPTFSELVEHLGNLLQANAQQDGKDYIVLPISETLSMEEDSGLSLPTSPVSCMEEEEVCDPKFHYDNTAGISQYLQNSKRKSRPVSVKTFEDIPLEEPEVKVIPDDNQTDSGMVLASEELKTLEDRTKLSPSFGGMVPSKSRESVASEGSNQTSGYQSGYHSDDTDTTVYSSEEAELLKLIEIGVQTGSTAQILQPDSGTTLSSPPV

The assay concerns the target Vascular endothelial growth factor receptor 2 (Homo sapiens, UniProt P35968).
The Kd is the free concentration of one partner at which half of the binding sites on the other are occupied at equilibrium, for simple one-to-one binding. The low end stands for higher affinity, the high end for lower affinity. Compound `CS(=O)(=O)c1ccccc1-c1nc(-c2ccc(F)cc2)c(-c2ccncc2)[nH]1` [D3RKN_30] gave a Kd of 7 µM.
With `Cc1ccc(C)c(Oc2nccc(-c3c(-c4ccc(F)cc4)ncn3C3CCNCC3)n2)c1` [2-(2,5-Dimethyl-phenoxy)-4-[5-(4-fluoro-phenyl)-3-piperidin-4-yl-3H-imidazol-4-yl]-pyrimidine] the figure was 10 µM; with `Cc1cc(C)cc(Oc2nccc(-c3c(-c4ccc(F)cc4)ncn3C3CCNCC3)n2)c1` [2-(3,5-Dimethyl-phenoxy)-4-[5-(4-fluoro-phenyl)-3-piperidin-4-yl-3H-imidazol-4-yl]-pyrimidine], 10 µM; with `O=C(O)c1ccc(-c2nc(-c3ccc(F)cc3)c(-c3ccncc3)[nH]2)cc1` [D3RKN_53], 10 µM.
